The other results are listed elsewhere or left out. Single values are uncertain, as repeats are few or missing.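 Cells were imaged in 1,536-well plates, and nuclei stained with an antibody against cleaved PARP were counted against all DNA-stained nuclei to give the apoptosis fraction. Screening doses were chosen to leave most cells alive, and resting and induced cleaved-PARP levels differ strongly between cell lines.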
What follows are molecules tested on A375 (assay: cleaved PARP positive nuclei fraction relative to DMSO control; melanoma cells; higher = more apoptosis). Conditions: library dose: low library concentration; 72 h.

Row | Structure (SMILES) | cleaved PARP positive nuclei fraction [%]
1 | C=CCNC1=C2C[C@@H](C)C[C@H](OC)[C@H](O)[C@@H](C)/C=C(\C)[C@H](OC(N)=O)[C@@H](OC)/C=C\C=C(/C)C(=O)NC(=CC1=O)C2=O [Tanespimycin] + COc1cc(Nc2ncc(F)c(Nc3ccc4c(n3)NC(=O)C(C)(C)O4)n2)cc(OC)c1OC [Tamatinib] (first compound 0.002 µM, partner dose 0.4 µM) | 146
2 | OCc1c[nH]c2ccccc12 [Indole-3-carbinol] + C=CCn1c(=O)c2cnc(Nc3ccc(N4CCN(C)CC4)cc3)nc2n1-c1cccc(C(C)(C)O)n1 [MK1775] (first compound 0.8 µM, partner dose 0.02 µM) | 177
3 | Cc1ccc(NC(=O)c2cccc(N(C)C)c2)cc1NC(=O)c1ccc(O)cc1 + CN(NC(=O)CC(=O)NN(C)C(=S)c1ccccc1)C(=S)c1ccccc1 [STA4783] (first compound 2 µM, partner dose 0.006 µM) | 5120
4 | Clc1ccc(Nc2nnc(Cc3ccncc3)c3ccccc23)cc1 [vatalanib] + COc1cc2c(Oc3ccc4[nH]c(C)cc4c3F)ncnc2cc1OCCCN1CCCC1 [cediranib] (first compound 2 µM, partner dose 0.4 µM) | 45.3
5 | Cn1nnc2c(C(N)=O)ncn2c1=O [temozolomide] + O=C(O)c1ccc(-c2c[nH]c3ncc(-c4ccccc4)cc23)cc1C1CCCC1 [GSK650394] (first compound 2 µM, partner dose 0.16 µM) | 91.1
6 | CC1(C)NC(=O)N(c2ccc([N+](=O)[O-])c(C(F)(F)F)c2)C1=O [nilutamide] + CC(C)(C)c1cnc(CSc2cnc(NC(=O)C3CCNCC3)s2)o1 [SNS-032] (first compound 1 µM, partner dose 0.01 µM) | 16.8
7 | CC(C)(C)c1cnc(CSc2cnc(NC(=O)C3CCNCC3)s2)o1 + CN(C)S(=O)(=O)c1ccc2c(c1)/C(=C/c1cc3c([nH]1)CCCC3)C(=O)N2 [SU6656] (first compound 0.01 µM, partner dose 0.4 µM) | 317
8 | CC(=O)c1c(C)c2cnc(Nc3ccc(N4CCNCC4)cn3)nc2n(C2CCCC2)c1=O [palbociclib] + CN(C)S(=O)(=O)c1ccc2c(c1)/C(=C/c1cc3c([nH]1)CCCC3)C(=O)N2 [SU6656] (first compound 0.04 µM, partner dose 0.4 µM) | 87.7
9 | CO[C@@H]1[C@H](N(C)C(=O)c2ccccc2)C[C@H]2O[C@]1(C)n1c3ccccc3c3c4c(c5c6ccccc6n2c5c31)C(=O)NC4 [Midostaurin] + C[C@@H]1CCN(C(=O)CC#N)C[C@@H]1N(C)c1ncnc2[nH]ccc12 [CP690550] (first compound 0.08 µM, partner dose 1 µM) | 187
10 | O=C(CCCCCCC(=O)Nc1ccccc1)NO [vorinostat] + CC1(C)NC(=O)N(c2ccc([N+](=O)[O-])c(C(F)(F)F)c2)C1=O [nilutamide] (first compound 0.08 µM, partner dose 1 µM) | 36.2
11 | Cc1ccc(NC(=O)c2cccc(N(C)C)c2)cc1NC(=O)c1ccc(O)cc1 + COc1cc2c(Oc3ccc4[nH]c(C)cc4c3F)ncnc2cc1OCCCN1CCCC1 [cediranib] (first compound 2 µM, partner dose 0.4 µM) | 96.3
12 | OCc1c[nH]c2ccccc12 [Indole-3-carbinol] + CN(NC(=O)CC(=O)NN(C)C(=S)c1ccccc1)C(=S)c1ccccc1 [STA4783] (first compound 0.8 µM, partner dose 0.006 µM) | 2630
13 | Cn1c(Nc2ccc(C(F)(F)F)cc2)nc2cc(Oc3ccnc(-c4ncc(C(F)(F)F)[nH]4)c3)ccc21 + NCC(=O)Nc1ccc(-n2nc(C(F)(F)F)cc2-c2ccc3c(ccc4ccccc43)c2)cc1 [OSU03012] (first compound 0.08 µM, partner dose 1 µM) | 14000
14 | CO[C@@H]1[C@H](N(C)C(=O)c2ccccc2)C[C@H]2O[C@]1(C)n1c3ccccc3c3c4c(c5c6ccccc6n2c5c31)C(=O)NC4 [Midostaurin] + COc1cc2c(Oc3ccc4[nH]c(C)cc4c3F)ncnc2cc1OCCCN1CCCC1 [cediranib] (first compound 0.08 µM, partner dose 0.4 µM) | 282
15 | C=CCNC1=C2C[C@@H](C)C[C@H](OC)[C@H](O)[C@@H](C)/C=C(\C)[C@H](OC(N)=O)[C@@H](OC)/C=C\C=C(/C)C(=O)NC(=CC1=O)C2=O [Tanespimycin] + O=C(O)c1ccc(-c2c[nH]c3ncc(-c4ccccc4)cc23)cc1C1CCCC1 [GSK650394] (first compound 0.002 µM, partner dose 0.16 µM) | 84.9
16 | CC1(C)NC(=O)N(c2ccc([N+](=O)[O-])c(C(F)(F)F)c2)C1=O [nilutamide] + C=CCn1c(=O)c2cnc(Nc3ccc(N4CCN(C)CC4)cc3)nc2n1-c1cccc(C(C)(C)O)n1 [MK1775] (first compound 1 µM, partner dose 0.02 µM) | 152
17 | Nc1cccc2c1CN(C1CCC(=O)NC1=O)C2=O (configuration not stated) [lenalidomide] + CC1(C)NC(=O)N(c2ccc([N+](=O)[O-])c(C(F)(F)F)c2)C1=O [nilutamide] (first compound 1 µM, partner dose 1 µM) | 64.1
18 | CO[C@@H]1[C@H](N(C)C(=O)c2ccccc2)C[C@H]2O[C@]1(C)n1c3ccccc3c3c4c(c5c6ccccc6n2c5c31)C(=O)NC4 [Midostaurin] + NCC(=O)Nc1ccc(-n2nc(C(F)(F)F)cc2-c2ccc3c(ccc4ccccc43)c2)cc1 [OSU03012] (first compound 0.08 µM, partner dose 1 µM) | 3190
19 | C=CCn1c(=O)c2cnc(Nc3ccc(N4CCN(C)CC4)cc3)nc2n1-c1cccc(C(C)(C)O)n1 + C[C@@H]1CCN(C(=O)CC#N)C[C@@H]1N(C)c1ncnc2[nH]ccc12 [CP690550] (first compound 0.02 µM, partner dose 1 µM) | 219
20 | C=CCNC1=C2C[C@@H](C)C[C@H](OC)[C@H](O)[C@@H](C)/C=C(\C)[C@H](OC(N)=O)[C@@H](OC)/C=C\C=C(/C)C(=O)NC(=CC1=O)C2=O [Tanespimycin] + C=CCn1c(=O)c2cnc(Nc3ccc(N4CCN(C)CC4)cc3)nc2n1-c1cccc(C(C)(C)O)n1 [MK1775] (first compound 0.002 µM, partner dose 0.02 µM) | 134
21 | CC(C)(C)c1cnc(CSc2cnc(NC(=O)C3CCNCC3)s2)o1 + Cc1cc(N2CCOCC2)cc2[nH]c(-c3c(NC[C@@H](O)c4cccc(Cl)c4)cc[nH]c3=O)nc12 [BMS536924] (first compound 0.01 µM, partner dose 0.2 µM) | 135
22 | Cc1ccc(NC(=O)c2cccc(N(C)C)c2)cc1NC(=O)c1ccc(O)cc1 + NCC(=O)Nc1ccc(-n2nc(C(F)(F)F)cc2-c2ccc3c(ccc4ccccc43)c2)cc1 [OSU03012] (first compound 2 µM, partner dose 1 µM) | 5530
23 | OCc1c[nH]c2ccccc12 [Indole-3-carbinol] + O=C(CCCCCCC(=O)Nc1ccccc1)NO [vorinostat] (first compound 0.8 µM, partner dose 0.08 µM) | 58.6
24 | C=CCn1c(=O)c2cnc(Nc3ccc(N4CCN(C)CC4)cc3)nc2n1-c1cccc(C(C)(C)O)n1 + NCC(=O)Nc1ccc(-n2nc(C(F)(F)F)cc2-c2ccc3c(ccc4ccccc43)c2)cc1 [OSU03012] (first compound 0.02 µM, partner dose 1 µM) | 16400
25 | COCC[n+]1c2c(n(Cc3cnccn3)c1C)C(=O)c1ccccc1C2=O + CN(NC(=O)CC(=O)NN(C)C(=S)c1ccccc1)C(=S)c1ccccc1 [STA4783] (first compound 0.0004 µM, partner dose 0.006 µM) | 6780
26 | Cn1nnc2c(C(N)=O)ncn2c1=O [temozolomide] + CC1(C)NC(=O)N(c2ccc([N+](=O)[O-])c(C(F)(F)F)c2)C1=O [nilutamide] (first compound 2 µM, partner dose 1 µM) | 54.2
27 | COCC[n+]1c2c(n(Cc3cnccn3)c1C)C(=O)c1ccccc1C2=O + O=C(CCCCCCC(=O)Nc1ccccc1)NO [vorinostat] (first compound 0.0004 µM, partner dose 0.08 µM) | 20.9

Reprinted, nos. 9 to 10
Row | Structure (SMILES) | cleaved PARP positive nuclei fraction [%]
9 | CO[C@@H]1[C@H](N(C)C(=O)c2ccccc2)C[C@H]2O[C@]1(C)n1c3ccccc3c3c4c(c5c6ccccc6n2c5c31)C(=O)NC4 [Midostaurin] + C[C@@H]1CCN(C(=O)CC#N)C[C@@H]1N(C)c1ncnc2[nH]ccc12 [CP690550] (first compound 0.08 µM, partner dose 1 µM) | 187
10 | O=C(CCCCCCC(=O)Nc1ccccc1)NO [vorinostat] + CC1(C)NC(=O)N(c2ccc([N+](=O)[O-])c(C(F)(F)F)c2)C1=O [nilutamide] (first compound 0.08 µM, partner dose 1 µM) | 36.2
